Literature values in article PMC7101422, “N-Phenethyl Substitution in 14-Methoxy-N-methylmorphinan-6-ones Turns Selective µ Opioid Receptor Ligands into Dual µ/δ Opioid Receptor Agonists” (Scientific Reports, 2020).
Marks after values point to notes of the source that are not given here.

Test system: mice
Conditions: tail-flick, s.c., at 30 min (peak effect); cited from earlier work

CN1CC[C@]23c4c5ccc(O)c4O[C@H]2[C@@H](O)C=C[C@H]3[C@H]1C5 [Morphine (1), Morphine, reference compound]
ED50 (95% CL): 3.06 (1.76–5.31)^b mg/kg
